Measured data: PubChem BioAssay AID602196 (INSERM, 2012)
Screen: 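Knock-downs that protect lung cancer cells from cisplatin or sensitise them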. Cells: human A549 lung cancer cells. Reagent: siRNA pair against human genes. Duration: 48 h transfection before cisplatin; time from cisplatin to read-out not stated. Conditions: cisplatin at a dose killing half of control-siRNA cells; exact dose and duration not given. Detection: 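Shift in cisplatin death relative to control siRNA, from -50 (all cells die) to +50 (no cells die); siRNAs harmful on their own scored 0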. Reading the numbers: two-siRNA summed score (-2 to +2): higher = both siRNAs protect from cisplatin killing; -2 means both sensitise; mean protection from cisplatin (shift in death) and protection from cisplatin (shift in death), siRNA C: higher = protection from cisplatin killing. Hit rule: 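siRNAs harmful alone (LDH or WST-1) get 0; others get +1 for less and -1 for more cisplatin killing; genes are active when the two siRNAs give the same sign, summing to ±2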. Meaning of the calls: active = both siRNAs shift cisplatin killing the same way; inactive = no consistent shift, or siRNA harmful alone.
This is one part, drawn at random, of about 23,000 deposited reagents. 455 of all reagents (2%) were called active. 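Active includes both protection and sensitisation; some change values fall well beyond the stated -50 to +50 range.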 The numbers tell different reagents against one gene apart. Further read-outs or replicates are left out here. No sequences are given here. Not given: the amount of reagent.

| gene | reagent | two-siRNA summed score (-2 to +2) | mean protection from cisplatin (shift in death) (%) | protection from cisplatin (shift in death), siRNA C (%) | Call |
| --- | --- | --- | --- | --- | --- |
| LOC401199 | 1 | 0 | 10.1 | 11.5 | inactive |
| ODAM | 1 | 0 | -0.5 | 3.3 | inactive |
| LOC441446 | 1 | 0 | 10.6 | 3.8 | inactive |
| ATP4B | 1 | 1 | 13.8 | 15.2 | inactive |
| ATP4B | 2 | 1 | 19.2 | 20.3 | inactive |
| SPATC1 | 1 | 0 | 10.3 | 22.9 | inactive |
| WDR18 | 1 | -1 | -5.9 | 1.2 | inactive |
| JUN | 1 | 0 | -8.5 | -3.9 | inactive |
| TAFA5-AS1 | 1 | 0 | -2.6 | 9.6 | inactive |
| THYN1 | 1 | 2 | 12.3 | 13.6 | active |
| LOC388334 | 1 | 0 | -1.6 | -14.1 | inactive |
| CFAP70 | 1 | 0 | -0.7 | -12 | inactive |
| NLRP3 | 1 | 0 | -5.2 | 16.4 | inactive |
| SOX2-OT | 1 | 0 | -7.1 | 0.3 | inactive |
| OR6F1 | 1 | 0 | 7 | 11.4 | inactive |
| TAGLN | 1 | 0 | -0.1 | 1.6 | inactive |
| ROMO1 | 1 | 0 | -5.1 | -6.6 | inactive |
| FAXC | 1 | 0 | -1.7 | 1.4 | inactive |
| ZC3H18 | 1 | 0 | 2.4 | 8.7 | inactive |
| SLC6A7 | 1 | 0 | -13 | -12.9 | inactive |
| ZNF226 | 1 | 1 | 10 | 4.8 | inactive |
| CD300C | 1 | 0 | -4.2 | -9.4 | inactive |
| TOX3 | 1 | 0 | 2.9 | -1.4 | inactive |
| CLCA1 | 1 | 0 | 15.6 | 2.8 | inactive |
| LOC158381 | 1 | 0 | 3.4 | 0.6 | inactive |
| ZNF791 | 1 | 0 | 16.2 | 27.7 | inactive |
| RSF1 | 1 | 0 | -39.1 | -46.1 | inactive |
| LOC439947 | 1 | 0 | 11.1 | 14.2 | inactive |
| LOC440562 | 1 | 0 | -1.1 | -1 | inactive |
| MIR3667HG | 1 | 1 | 8.9 | 9.7 | inactive |
| PCSK5 | 1 | -1 | -4.6 | 0.7 | inactive |
| KCNN4 | 1 | 0 | 0.8 | -10 | inactive |
| HMGXB4 | 1 | 0 | 2 | 19.5 | inactive |
| GALNT12 | 1 | 0 | 13.1 | 10 | inactive |
| GPR119 | 1 | 0 | 12.9 | 8 | inactive |
| AP5M1 | 1 | 0 | 4.5 | -0.3 | inactive |
| LOC158825 | 1 | 0 | 3.7 | -1.4 | inactive |
| DOK4 | 1 | 0 | -12.1 | -17.4 | inactive |
| S1PR4 | 1 | 0 | 7.8 | 16.9 | inactive |

Not a retest: entries from further up.
| gene | reagent | two-siRNA summed score (-2 to +2) | mean protection from cisplatin (shift in death) (%) | protection from cisplatin (shift in death), siRNA C (%) | Call |
| --- | --- | --- | --- | --- | --- |
| CD300C | 1 | 0 | -4.2 | -9.4 | inactive |
| TOX3 | 1 | 0 | 2.9 | -1.4 | inactive |
